# Results: US20230089867A1 (Novartis AG, priority 2018, published 2023)
# Experiment: general procedure: hybrid (solid and solution phase) peptide synthesis; PS-2-Chlorotrityl chloride resin; HATU (TBTU, HCTU or HATU named); HATU/HOAt/2,6-lutidine for cyclisation
# Settings: cyclisation step
row,Substance,cyclisation yield [%]
1,"(2S,5S,8S,13S,16R)-16-allyl-1-(4-chloro-2-(4-(2-((dimethylamino)methyl)-1-methyl-1H-imidazol-5-yl)phenoxy)benzyl)-8-(4-chlorobenzyl)-5-(methoxymethyl)-2,7,13,14-tetramethyl-1,4,7,11,14-pentaaza cyclooctadecane-3,6,10,15,18-pentaone",26
2,"(2S,5S,8S,13S,16R)-16-benzyl-8-(4-chlorobenzyl)-1-(4-ethyl-2-(4-(1-methyl-2-(pyrrolidin-1-ylmethyl)-1H-imidazol-5-yl)phenoxy)benzyl)-2-(2-fluoroethyl)-5-(methoxymethyl)-7,13,14-trimethyl-1,4,7,11,14-pentaazacyclooctadecane-3,6,10,15,18-pentaone",47
3,"(4S,7S,10S,16aS,20aS)-4-(4-chlorobenzyl)-11-(2-(difluoromethoxy)-6-(4-(2-((dimethylamino)methyl)-1-methyl-1H-imidazol-5-yl)phenoxy)benzyl)-7-(methoxymethyl)-5,10,16-trimethylhexadecahydro-benzo[l][1,4,7,11,14]pentaazacyclooctadecine-2,6,9,12,15(3H)-pentaone",22
4,"(4S,7S,10S,14R,16aS,20aS)-14-benzyl-11-(4-chloro-2-(4-(2-((dimethylamino)methyl)-1-methyl-1H-imidazol-5-yl)phenoxy)benzyl)-4-(4-chlorobenzyl)-7-(methoxy-methyl)-5,16-dimethyl-10-(3-(3,3,4,4-tetrafluoropyrrolidin-1-yl)propyl)hexadecahydro-benzo[l][1,4,7,11,14]pentaazacyclooctadecine-2,6,9,12,15(3H)-pentaone",17
5,"(4S,7S,10S,14R)-14-benzyl-11-(4-chloro-2-(4-(2-((dimethylamino)methyl)-1-methyl-1H-imidazol-5-yl)phenoxy)benzyl)-4-(4-chlorobenzyl)-7-(methoxymethyl)-5,10,16-trimethyltetradecahydro-1H-pyrano[3,4-1][1,4,7,11,14]pentaazacyclooctadecine-2,6,9,12,15(3H)-pentaone",17

# Same assay, conditions: cyclisation step, formate salt
row,Substance,cyclisation yield [%]
1,"(2S,5S,8S,13S,16R)-1-(4-chloro-2-(4-(2-((dimethylamino)methyl)-1-methyl-1H-imidazol-5-yl)phenoxy)benzyl)-8-(4-chlorobenzyl)-5-(ethoxymethyl)-2,7,13,14,16-pentamethyl-1,4,7,11,14-pentaaza cyclooctadecane-3,6,10,15,18-pentaone formate",9

# Same assay, conditions: late stage modification step
row,Substance,step yield
1,"(2S,5S,8S,13S,16R)-16-benzyl-1-(4-chloro-2-(4-(2-(1-hydroxyethyl)-1-methyl-1H-imidazol-5-yl)phenoxy)benzyl)-8-(4-chlorobenzyl)-5-(hydroxymethyl)-2,7,13,14-tetramethyl-1,4,7,11,14-pentaazacyclooctadecane-3,6,10,15,18-pentaone",55.7% yield
2,"(4S,7S,10S,14R,16aS,20aS)-10-(2-aminoethyl)-14-benzyl-11-(4-chloro-2-(4-(2-((dimethylamino)methyl)-1-methyl-1H-imidazol-5-yl)phenoxy)-benzyl)-4-(4-chlorobenzyl)-7-(methoxymethyl)-5,16-dimethylhexadecahydro-benzo[l][1,4,7,11,14]pentaazacyclo-octadecine-2,6,9,12,15(3H)-pentaone [109]",95%
3,"3-(2-(((2S,5S,8S,13S,16R)-16-Benzyl-8-(4-chlorobenzyl)-5-(methoxymethyl)-2,7,13,14-tetramethyl-3,6,10,15,18-pentaoxo-1,4,7,11,14-pentaazacyclooctadecan-1-yl)methyl)-5-chlorophenoxy)-N-(1-methylpiperidin-4-yl)benzamide",47.4% yield
4,"((4S,7S,10S,14R,16aS,20aS)-14-benzyl-11-(4-chloro-2-(4-(2-((dimethylamino)methyl)-1-methyl-1H-imidazol-5-yl)phenoxy)benzyl)-4-(4-chlorobenzyl)-5,10,16-trimethyl-2,6,9,12,15-pentaoxodocosahydrobenzo[l][1,4,7,11,14]pentaazacyclooctadecin-7-yl)methyl pivalate",56.7%
5,"(2S,5S,8S,13S,16R)-16-benzyl-1-(4-chloro-2-(4-(4-((diethylamino)methyl)-1H-1,2,3-triazol-1-yl)phenoxy)benzyl)-8-(4-chlorobenzyl)-5-(methoxymethyl)-2,7,13,14-tetramethyl-1,4,7,11,14-pentaazacyclooctadecane-3,6,10,15,18-pentaone",19%
6,"(4S,7S,10S,14R,16aS,20aS)-14-benzyl-11-(4-chloro-2-(4-(2-((dimethylamino)-methyl)-1-methyl-1H-imidazol-5-yl)phenoxy)benzyl)-4-(4-chlorobenzyl)-7-(methoxymethyl)-5,16-dimethyl-10-(2-morpholinoethyl)hexadecahydrobenzo-[l][1,4,7,11,14]pentaazacycloocta-decine-2,6,9,12,15(3H)-pentaone",11%
7,"(2S,5S,8S,13S,16R)-5-((1H-tetrazol-5-yl)methyl)-16-benzyl-1-(4-chloro-2-(4-(2-((dimethylamino) methyl)-1-methyl-1H-imidazol-5-yl)phenoxy)benzyl)-8-(4-chlorobenzyl)-2,7,13,14-tetramethyl-1,4,7,11,14-pentaazacyclooctadecane-3,6,10,15,18-pentaone",2% yield
8,"(4S,7S,10S,14R,16aS,20aS)-14-benzyl-11-(4-chloro-2-(4-(2-((dimethylamino)methyl)-1-methyl-1H-imidazol-5-yl)phenoxy)benzyl)-4-(4-chlorobenzyl)-7-(methoxymethyl)-5,16-dimethyl-10-(3-(2-oxopyrrolidin-1-yl)propyl)hexadecahydrobenzo[l][1,4,7,11,14]pentaazacyclooctadecine-2,6,9,12,15 (3H)-pentaone",13.5%
9,"(2S,5S,8S,13S,16R)-16-benzyl-1-(4-chloro-2-((2-(1-methylpiperidin-4-yl)-3-oxoisoindolin-5-yl)oxy)benzyl)-8-(4-chlorobenzyl)-5-(hydroxymethyl)-2,7,13,14-tetramethyl-1,4,7,11,14-pentaazacyclooctadecane-3,6,10,15,18-pentaone",44.6%
10,"Ethyl 4-((3-((4S,7S,10S,14R,16aS,20aS)-14-benzyl-11-(4-chloro-2-(4-(2-((dimethylamino) methyl)-1-methyl-1H-imidazol-5-yl)phenoxy)benzyl)-4-(4-chlorobenzyl)-7-(methoxymethyl)-5,16-dimethyl-2,6,9,12,15-pentaoxodocosahydrobenzo[l][1,4,7,11,14]pentaazacyclooctadecin-10-yl)propyl)amino) butanoate",27%

# Same assay, conditions: late stage modification step, chloride hydrochloride
row,Substance,step yield [% yield]
1,"3-(4-(2-(((2S,5S,8S,13S,16R)-16-benzyl-8-(4-chlorobenzyl)-5-(methoxymethyl)-2,7,13,14-tetramethyl-3,6,10,15,18-pentaoxo-1,4,7,11,14-pentaazacyclooctadecan-1-yl)methyl)-5-chlorophenoxy)phenyl)-5,6-dihydro-8H-spiro[imidazo[1,2-a]pyrazine-7,1′-pyrrolidin]-7-ium chloride hydrochloride",21.3

# Same assay, conditions: late stage modification step, formate
row,Substance,step yield [%]
1,"(2S,5S,8S,13S,16R)-16-Benzyl-1-(4-chloro-2-(4-(4-((dimethylamino)methyl)-5-methyl-1H-1,2,3-triazol-1-yl)phenoxy)benzyl)-8-(4-chlorobenzyl)-5-(methoxymethyl)-2,7,13,14-tetramethyl-1,4,7,11,14-pentaazacyclooctadecane-3,6,10,15,18-pentaone formate",4

# Same assay, conditions: late stage modification step, hydrochloride
row,Substance,step yield [% yield]
1,"(2S,5S,8S,13S,16R)-16-benzyl-1-(4-chloro-2-(4-(1-methyl-2-(pyrrolidin-1-ylmethyl)-1H-imidazol-5-yl)phenoxy)benzyl)-8-(4-chlorobenzyl)-13-(4-(dimethylamino)butyl)-5-(methoxymethyl)-2,7,14-trimethyl-1,4,7,11,14-pentaazacyclooctadecane-3,6,10,15,18-pentaone hydrochloride",64.7

# Same assay, conditions: late stage modification step, trifluoroacetate
row,Substance,step yield [% yield]
1,"(2S,5S,8S,13S,16R)-16-benzyl-1-(4-chloro-2-(4-(5,6,7,8-tetrahydroimidazo[1,2-a]pyrazin-3-yl)-phenoxy)benzyl)-8-(4-chlorobenzyl)-5-(methoxymethyl)-2,7,13,14-tetramethyl-1,4,7,11,14-pentaazacyclooctadecane-3,6,10,15,18-pentaone trifluoroacetate",38
2,"N-(4-((2S,5S,8S,13S,16R)-16-benzyl-1-(4-chloro-2-(4-(1-methyl-2-(pyrrolidin-1-ylmethyl)-1H-imidazol-5-yl)phenoxy)benzyl)-8-(4-chlorobenzyl)-5-(methoxymethyl)-2,7,14-trimethyl-3,6,10,15,18-pentaoxo-1,4,7,11,14-pentaazacyclooctadecan-13-yl)butyl)acetamide trifluoroacetate",72.8
3,"(2S,5S,8S,13S,16R)-13-(4-aminobutyl)-16-benzyl-1-(4-chloro-2-(4-(1-methyl-2-(pyrrolidin-1-ylmethyl)-1H-imidazol-5-yl)phenoxy)benzyl)-8-(4-chlorobenzyl)-5-(methoxymethyl)-2,7,14-trimethyl-1,4,7,11,14-pentaazacyclooctadecane-3,6,10,15,18-pentaone trifluoroacetate",28.1
4,"5-(4-(2-(((2S,5S,8S,13S,16R)-16-benzyl-8-(4-chlorobenzyl)-5-(methoxymethyl)-2,7,13,14-tetramethyl-3,6,10,15,18-pentaoxo-1,4,7,11,14-pentaazacyclooctadecan-1-yl)methyl)-5-chlorophenoxy)phenyl)-N-(piperidin-4-yl)picolinamide trifluoroacetate",43.2

# Same assay, conditions: whole synthesis
row,Substance,crude purity (method not given) [%]
1,"(2S,5S,8S,13S,16R)-2-amino-16-benzyl-8-(4-chlorobenzyl)-5-(methoxymethyl)-7,13,14-trimethyl-3,6,10,15-tetraoxo-4,7,11,14-tetraazaoctadecan-18-oic acid",76
